Experimental data: PubChem BioAssay AID1508597 (Cure First, 2020)
This is an unselected part of the about 2,100 reagents, in one setting of the screen. 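Calls flag viability under 80% in either arm, not effects specific to rucaparib; the reference for percent is not stated.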 A reagent listed more than once was tested more than once; the source does not tell the runs apart. No sequences are given here. Not given: the 100% reference.

Assay: 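Knock-downs altering ovarian cancer cell survival with or without PARP inhibitor rucaparib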 (primary screen)
Cells: human ovarian carcinoma lines grown from tumours: OCI-P5x (papillary serous) and OCI-C5x (clear cell)
Knock-down reagent: siRNA pool against human genes, 1.25 pmol siRNA per well
Time to read-out: 72 h or 96 h, depending on the cell culture
Treatment: rucaparib 20 µM (about IC30) or vehicle, present until read-out
Rucaparib or vehicle: Vehicle
Cell line: OCI-C5x (clear cell)
Read-out: 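Luminescent ATP-based viability assay read 72 or 96 h after transfection, depending on culture, given as normalised percent viability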
Scale: viability, normalised: higher = more viable cells remaining
Rule for the call: 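a well counts as a hit if its normalised viability is under 80 percent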
Calls: active = viability under 80%; inactive = viability 80% or more

gene knocked down	technical replicate	viability, normalised (%)	outcome
RBM14 (RNA binding motif protein 14)	1	43.2	active
RBM14 (RNA binding motif protein 14)	2	47.9	active
RBM14 (RNA binding motif protein 14)	3	30.8	active
SRSF1 (serine and arginine rich splicing factor 1)	1	31.5	active
SRSF1 (serine and arginine rich splicing factor 1)	2	38	active
SRSF1 (serine and arginine rich splicing factor 1)	3	34.3	active
PIK3CD	1	110	inactive
PIK3CD	2	55	active
PIK3CD	3	47.1	active
NLK (nemo like kinase)	1	71.4	active
NLK (nemo like kinase)	2	66.7	active
NLK (nemo like kinase)	3	53.8	active
NABP2 (nucleic acid binding protein 2)	1	46.2	active
NABP2 (nucleic acid binding protein 2)	2	31.9	active
NABP2 (nucleic acid binding protein 2)	3	64.4	active
SRPK2 (SRSF protein kinase 2)	1	115	inactive
SRPK2 (SRSF protein kinase 2)	2	72.5	active
SRPK2 (SRSF protein kinase 2)	3	69.1	active
UPF1 (UPF1 RNA helicase and ATPase)	1	83.6	inactive
UPF1 (UPF1 RNA helicase and ATPase)	2	48.2	active
UPF1 (UPF1 RNA helicase and ATPase)	3	30.7	active
CDC14B (cell division cycle 14B)	1	40.7	active
CDC14B (cell division cycle 14B)	2	48.6	active
CDC14B (cell division cycle 14B)	3	38.3	active
SMPDL3B (sphingomyelin phosphodiesterase acid like 3B)	1	56.7	active
SMPDL3B (sphingomyelin phosphodiesterase acid like 3B)	2	50.4	active
SMPDL3B (sphingomyelin phosphodiesterase acid like 3B)	3	57.1	active
ARID4B (AT-rich interaction domain 4B)	1	41.8	active
ARID4B (AT-rich interaction domain 4B)	2	38.9	active
ARID4B (AT-rich interaction domain 4B)	3	39	active
PBK (PDZ binding kinase)	1	63.4	active
PBK (PDZ binding kinase)	1	46.2	active
PBK (PDZ binding kinase)	2	52.8	active
PBK (PDZ binding kinase)	2	69	active
PBK (PDZ binding kinase)	3	37.5	active
PBK (PDZ binding kinase)	3	54.4	active
SPAG11B (sperm associated antigen 11B)	1	63	active
SPAG11B (sperm associated antigen 11B)	2	49.5	active
SPAG11B (sperm associated antigen 11B)	3	54.2	active
DDX6 (DEAD-box helicase 6)	1	42.9	active
DDX6 (DEAD-box helicase 6)	2	51.5	active
DDX6 (DEAD-box helicase 6)	3	38	active
AMELX (amelogenin X-linked)	1	38.9	active
AMELX (amelogenin X-linked)	2	34.6	active
AMELX (amelogenin X-linked)	3	37.5	active
CKB (creatine kinase B)	1	56.3	active
CKB (creatine kinase B)	2	62.4	active
CKB (creatine kinase B)	3	58.9	active
TRIM68 (tripartite motif containing 68)	1	48	active
TRIM68 (tripartite motif containing 68)	2	44.2	active
TRIM68 (tripartite motif containing 68)	3	59	active
TERF1 (telomeric repeat binding factor 1)	1	36	active
TERF1 (telomeric repeat binding factor 1)	1	48.2	active
TERF1 (telomeric repeat binding factor 1)	2	44.9	active
TERF1 (telomeric repeat binding factor 1)	2	37.1	active
TERF1 (telomeric repeat binding factor 1)	3	40.2	active
TERF1 (telomeric repeat binding factor 1)	3	34	active
RUVBL2 (RuvB like AAA ATPase 2)	1	35.9	active
RUVBL2 (RuvB like AAA ATPase 2)	1	33.3	active
RUVBL2 (RuvB like AAA ATPase 2)	2	49.1	active
RUVBL2 (RuvB like AAA ATPase 2)	2	57.5	active
RUVBL2 (RuvB like AAA ATPase 2)	3	55	active
RUVBL2 (RuvB like AAA ATPase 2)	3	44.2	active
PLCB3 (phospholipase C beta 3)	1	38	active
PLCB3 (phospholipase C beta 3)	2	37.8	active
PLCB3 (phospholipase C beta 3)	3	29.8	active
CDK7 (cyclin dependent kinase 7)	1	54.9	active
CDK7 (cyclin dependent kinase 7)	1	49.7	active
CDK7 (cyclin dependent kinase 7)	2	64.6	active
CDK7 (cyclin dependent kinase 7)	2	47.5	active
CDK7 (cyclin dependent kinase 7)	3	58.2	active
CDK7 (cyclin dependent kinase 7)	3	55.9	active
SET (SET nuclear proto-oncogene)	1	58.8	active
SET (SET nuclear proto-oncogene)	2	58.6	active
SET (SET nuclear proto-oncogene)	3	72	active

A stretch taken from the entries so far:
gene knocked down	technical replicate	viability, normalised (%)	outcome
RUVBL2 (RuvB like AAA ATPase 2)	2	49.1	active
RUVBL2 (RuvB like AAA ATPase 2)	2	57.5	active
RUVBL2 (RuvB like AAA ATPase 2)	3	55	active
RUVBL2 (RuvB like AAA ATPase 2)	3	44.2	active
